Changes are numbered by the printed parent chain. No constants are given. Whether binding was seen depends on the method and setting. In cells and extracts the contact can be indirect. Some results given as binding are weak or reduced against the parent protein; the word gives no strength. For some of these results: Tags and fused reporters may be left off the sequences shown.
Assays:
FATP6-Flag (human) = molecular target: T1, FATP6-Flag (human) (UniProt Q9Y2P4); assay: co-IP; FATP-Flag transfected for 48 h into Hek293T (FATP2-Flag also into HepG2), lysis in 150 mM NaCl, 50 mM Tris–HCl pH 7.4, 1% Nonidet P-40, anti-DYKDDDDK resin overnight at 4 °C, blot for endogenous CerS2; for FATP2-Flag with or without FB1 (20 μM, 24 h)
T1 sequence: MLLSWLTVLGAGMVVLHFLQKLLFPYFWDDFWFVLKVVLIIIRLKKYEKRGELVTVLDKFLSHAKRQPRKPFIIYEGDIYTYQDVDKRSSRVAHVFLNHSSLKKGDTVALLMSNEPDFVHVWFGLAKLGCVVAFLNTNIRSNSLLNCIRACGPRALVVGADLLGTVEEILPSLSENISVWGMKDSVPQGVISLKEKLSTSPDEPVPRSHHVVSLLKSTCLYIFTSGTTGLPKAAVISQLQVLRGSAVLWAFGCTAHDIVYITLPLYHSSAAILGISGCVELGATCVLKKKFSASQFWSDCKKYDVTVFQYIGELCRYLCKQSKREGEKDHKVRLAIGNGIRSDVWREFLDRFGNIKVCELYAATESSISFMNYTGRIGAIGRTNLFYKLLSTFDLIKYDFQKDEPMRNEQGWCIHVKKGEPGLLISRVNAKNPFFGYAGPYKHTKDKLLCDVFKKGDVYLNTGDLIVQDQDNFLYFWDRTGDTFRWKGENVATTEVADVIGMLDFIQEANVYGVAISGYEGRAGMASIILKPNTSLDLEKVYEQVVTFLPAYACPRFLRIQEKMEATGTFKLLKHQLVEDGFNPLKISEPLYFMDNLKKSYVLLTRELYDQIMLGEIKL

The chains behind the UniProt entries cited, without tags or fusion partners.
UniProt Q6PCB7: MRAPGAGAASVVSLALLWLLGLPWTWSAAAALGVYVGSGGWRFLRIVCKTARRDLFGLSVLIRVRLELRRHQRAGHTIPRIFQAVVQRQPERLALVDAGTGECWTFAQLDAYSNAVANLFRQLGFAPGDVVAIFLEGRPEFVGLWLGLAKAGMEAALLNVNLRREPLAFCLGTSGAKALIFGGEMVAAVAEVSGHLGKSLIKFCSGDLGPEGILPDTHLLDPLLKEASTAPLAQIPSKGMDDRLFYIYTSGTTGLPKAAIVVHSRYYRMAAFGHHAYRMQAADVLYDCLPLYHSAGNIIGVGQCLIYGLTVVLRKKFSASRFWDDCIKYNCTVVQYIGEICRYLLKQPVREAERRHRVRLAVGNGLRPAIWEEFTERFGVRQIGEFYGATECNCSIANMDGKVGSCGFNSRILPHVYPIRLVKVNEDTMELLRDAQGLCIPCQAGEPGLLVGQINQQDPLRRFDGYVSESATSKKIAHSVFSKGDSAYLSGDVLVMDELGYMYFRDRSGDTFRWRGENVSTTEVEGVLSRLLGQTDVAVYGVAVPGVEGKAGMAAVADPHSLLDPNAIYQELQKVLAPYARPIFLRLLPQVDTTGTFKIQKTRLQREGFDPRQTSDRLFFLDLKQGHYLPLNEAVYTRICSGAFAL
UniProt Q6P1M0: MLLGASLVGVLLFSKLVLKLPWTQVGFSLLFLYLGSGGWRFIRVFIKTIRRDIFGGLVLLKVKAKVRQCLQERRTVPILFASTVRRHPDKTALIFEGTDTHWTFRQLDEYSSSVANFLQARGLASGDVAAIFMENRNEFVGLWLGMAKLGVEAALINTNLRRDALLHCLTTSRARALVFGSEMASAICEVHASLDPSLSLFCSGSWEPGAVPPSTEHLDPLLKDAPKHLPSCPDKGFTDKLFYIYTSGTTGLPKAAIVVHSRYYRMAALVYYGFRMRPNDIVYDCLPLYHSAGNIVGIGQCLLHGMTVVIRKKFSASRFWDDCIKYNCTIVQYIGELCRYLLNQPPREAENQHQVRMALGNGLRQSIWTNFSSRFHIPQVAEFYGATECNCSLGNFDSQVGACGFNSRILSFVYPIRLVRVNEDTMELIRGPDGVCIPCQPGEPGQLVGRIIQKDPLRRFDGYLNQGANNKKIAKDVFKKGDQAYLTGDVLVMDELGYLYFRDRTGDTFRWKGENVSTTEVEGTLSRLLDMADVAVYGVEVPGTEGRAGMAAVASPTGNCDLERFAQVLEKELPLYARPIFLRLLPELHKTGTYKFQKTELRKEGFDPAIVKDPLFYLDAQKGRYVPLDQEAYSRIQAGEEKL

FATP1-Flag (human) = FATP1-Flag (human) (UniProt Q6PCB7); assay: as above
FATP3-Flag (human) = molecular target: T2, FATP3-Flag (human) (UniProt Q5K4L6); assay: as above
T2 sequence: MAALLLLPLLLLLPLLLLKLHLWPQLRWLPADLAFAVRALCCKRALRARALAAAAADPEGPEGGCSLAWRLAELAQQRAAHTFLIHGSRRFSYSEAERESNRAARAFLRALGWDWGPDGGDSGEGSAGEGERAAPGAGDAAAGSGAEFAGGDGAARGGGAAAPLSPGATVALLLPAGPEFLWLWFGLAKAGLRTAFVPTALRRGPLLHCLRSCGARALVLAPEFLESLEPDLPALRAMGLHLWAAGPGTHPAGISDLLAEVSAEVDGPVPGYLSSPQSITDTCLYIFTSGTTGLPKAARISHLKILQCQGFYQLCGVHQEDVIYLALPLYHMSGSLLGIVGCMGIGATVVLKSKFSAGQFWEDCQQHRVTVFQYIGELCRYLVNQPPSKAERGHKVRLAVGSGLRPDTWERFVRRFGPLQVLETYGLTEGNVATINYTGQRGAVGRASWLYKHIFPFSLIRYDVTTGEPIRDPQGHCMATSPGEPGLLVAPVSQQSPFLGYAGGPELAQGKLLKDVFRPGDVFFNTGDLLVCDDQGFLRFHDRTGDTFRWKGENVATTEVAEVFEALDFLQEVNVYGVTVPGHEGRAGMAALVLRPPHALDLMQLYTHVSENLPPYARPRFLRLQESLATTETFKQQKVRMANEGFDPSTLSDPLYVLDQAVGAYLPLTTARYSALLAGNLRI

FATP5-Flag (human) = molecular target: T3, FATP5-Flag (human) (UniProt Q9Y2P5); assay: as above
T3 sequence: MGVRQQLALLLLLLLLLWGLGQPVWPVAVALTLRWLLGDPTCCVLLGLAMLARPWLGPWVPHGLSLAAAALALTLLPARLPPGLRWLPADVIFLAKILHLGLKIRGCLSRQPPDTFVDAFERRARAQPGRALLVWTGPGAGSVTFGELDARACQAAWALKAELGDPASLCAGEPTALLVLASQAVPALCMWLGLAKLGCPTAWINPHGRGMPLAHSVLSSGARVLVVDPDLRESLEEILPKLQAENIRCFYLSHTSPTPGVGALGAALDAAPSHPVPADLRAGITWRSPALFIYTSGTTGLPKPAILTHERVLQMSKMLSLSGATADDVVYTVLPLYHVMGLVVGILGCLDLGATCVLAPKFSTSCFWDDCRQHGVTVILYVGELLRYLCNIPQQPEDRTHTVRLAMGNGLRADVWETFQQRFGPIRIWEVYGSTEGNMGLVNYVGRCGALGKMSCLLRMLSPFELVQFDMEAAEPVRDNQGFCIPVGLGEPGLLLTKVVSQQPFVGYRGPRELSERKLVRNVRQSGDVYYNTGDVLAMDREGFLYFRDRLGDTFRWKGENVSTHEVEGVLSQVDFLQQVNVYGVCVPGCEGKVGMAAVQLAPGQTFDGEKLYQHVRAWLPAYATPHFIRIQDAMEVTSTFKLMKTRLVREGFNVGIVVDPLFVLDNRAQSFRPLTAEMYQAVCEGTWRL

FATP4-Flag (human) = FATP4-Flag (human) (UniProt Q6P1M0); assay: as above
CerS2^H212A-H213A-HA = molecular target: T4, CerS2^H212A-H213A-HA (UniProt Q96G23); assay: co-IP; CerS2-HA or its mutants with FATP2-Flag transfected for 48 h into CerS2−/− Hek293T, lysis in 150 mM NaCl, 50 mM Tris–HCl pH 7.4, 1% Nonidet P-40, rabbit anti-HA antibody and protein A agarose at 4 °C, blot with anti-Flag
T4 sequence: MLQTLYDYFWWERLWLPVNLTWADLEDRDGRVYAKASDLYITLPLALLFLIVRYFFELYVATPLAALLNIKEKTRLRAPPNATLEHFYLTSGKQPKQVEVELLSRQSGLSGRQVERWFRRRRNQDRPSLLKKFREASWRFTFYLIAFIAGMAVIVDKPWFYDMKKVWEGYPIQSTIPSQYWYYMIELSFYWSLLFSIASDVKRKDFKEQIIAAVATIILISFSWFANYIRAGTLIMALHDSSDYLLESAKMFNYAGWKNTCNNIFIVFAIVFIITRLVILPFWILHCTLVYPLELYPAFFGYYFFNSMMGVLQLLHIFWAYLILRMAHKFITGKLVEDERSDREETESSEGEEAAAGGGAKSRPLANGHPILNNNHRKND

CerS2^Δ335–380-HA = molecular target: T5, CerS2^Δ335–380-HA (UniProt Q96G23); assay: as above
T5 sequence: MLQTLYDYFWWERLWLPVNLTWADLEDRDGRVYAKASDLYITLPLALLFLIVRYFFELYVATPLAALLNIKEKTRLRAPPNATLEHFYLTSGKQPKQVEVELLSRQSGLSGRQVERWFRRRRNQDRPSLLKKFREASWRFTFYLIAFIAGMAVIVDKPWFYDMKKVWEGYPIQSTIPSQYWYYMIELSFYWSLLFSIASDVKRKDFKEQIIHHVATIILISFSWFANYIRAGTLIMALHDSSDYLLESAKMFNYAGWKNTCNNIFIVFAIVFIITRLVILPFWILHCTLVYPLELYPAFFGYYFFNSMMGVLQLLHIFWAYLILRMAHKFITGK

CerS2(4A)-HA = molecular target: T6, CerS2(4A)-HA (UniProt Q96G23); assay: as above
T6 sequence: T4 sequence with A212H, A213H, S341A, T346A, S348A, S349A

CerS2^Δ68–118-HA = molecular target: T7, CerS2^Δ68–118-HA (UniProt Q96G23); assay: as above
T7 sequence: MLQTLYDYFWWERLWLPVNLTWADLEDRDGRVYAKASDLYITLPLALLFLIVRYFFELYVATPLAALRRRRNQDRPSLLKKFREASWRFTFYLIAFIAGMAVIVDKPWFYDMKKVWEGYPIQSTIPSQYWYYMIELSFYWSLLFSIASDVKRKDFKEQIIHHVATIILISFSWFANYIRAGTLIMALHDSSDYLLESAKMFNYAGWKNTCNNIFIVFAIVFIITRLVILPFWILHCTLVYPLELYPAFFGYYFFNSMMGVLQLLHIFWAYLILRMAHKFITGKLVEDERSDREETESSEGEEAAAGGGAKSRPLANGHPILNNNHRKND

CerS2^Δ338–344-HA = molecular target: T8, CerS2^Δ338–344-HA (UniProt Q96G23); assay: as above
T8 sequence: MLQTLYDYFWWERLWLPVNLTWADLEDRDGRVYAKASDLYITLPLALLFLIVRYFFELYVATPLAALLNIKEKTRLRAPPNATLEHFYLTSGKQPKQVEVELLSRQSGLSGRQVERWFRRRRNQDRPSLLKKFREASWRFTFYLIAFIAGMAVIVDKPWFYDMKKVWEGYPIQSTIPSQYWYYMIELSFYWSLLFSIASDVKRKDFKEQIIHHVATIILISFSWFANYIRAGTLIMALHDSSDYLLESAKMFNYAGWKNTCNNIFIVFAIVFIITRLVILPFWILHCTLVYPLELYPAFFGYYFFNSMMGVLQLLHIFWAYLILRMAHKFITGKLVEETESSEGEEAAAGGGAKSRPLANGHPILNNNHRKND

Measured: binding

CerS2 (endogenous in Hek293T and HepG2 cells) (from UniProt Q96G23 1-380)
binds: FATP6-Flag (human) | FATP1-Flag (human) | FATP3-Flag (human) | FATP5-Flag (human) | FATP4-Flag (human)

FATP2-Flag (from UniProt O14975 1-620)
binds: CerS2^H212A-H213A-HA | CerS2^Δ335–380-HA | CerS2(4A)-HA | CerS2^Δ68–118-HA | CerS2^Δ338–344-HA

Reference: article PMC8931434
